Our source for the binding values is article PMC4686857.

The chains behind the UniProt entries cited, without tags or fusion partners. Where a name states a change or a piece, a line headed by the entry shows the natural chain unless it says otherwise. A line that says so, or that is headed by a name, gives the form on record, which may keep a tag or linker.
UniProt P21333: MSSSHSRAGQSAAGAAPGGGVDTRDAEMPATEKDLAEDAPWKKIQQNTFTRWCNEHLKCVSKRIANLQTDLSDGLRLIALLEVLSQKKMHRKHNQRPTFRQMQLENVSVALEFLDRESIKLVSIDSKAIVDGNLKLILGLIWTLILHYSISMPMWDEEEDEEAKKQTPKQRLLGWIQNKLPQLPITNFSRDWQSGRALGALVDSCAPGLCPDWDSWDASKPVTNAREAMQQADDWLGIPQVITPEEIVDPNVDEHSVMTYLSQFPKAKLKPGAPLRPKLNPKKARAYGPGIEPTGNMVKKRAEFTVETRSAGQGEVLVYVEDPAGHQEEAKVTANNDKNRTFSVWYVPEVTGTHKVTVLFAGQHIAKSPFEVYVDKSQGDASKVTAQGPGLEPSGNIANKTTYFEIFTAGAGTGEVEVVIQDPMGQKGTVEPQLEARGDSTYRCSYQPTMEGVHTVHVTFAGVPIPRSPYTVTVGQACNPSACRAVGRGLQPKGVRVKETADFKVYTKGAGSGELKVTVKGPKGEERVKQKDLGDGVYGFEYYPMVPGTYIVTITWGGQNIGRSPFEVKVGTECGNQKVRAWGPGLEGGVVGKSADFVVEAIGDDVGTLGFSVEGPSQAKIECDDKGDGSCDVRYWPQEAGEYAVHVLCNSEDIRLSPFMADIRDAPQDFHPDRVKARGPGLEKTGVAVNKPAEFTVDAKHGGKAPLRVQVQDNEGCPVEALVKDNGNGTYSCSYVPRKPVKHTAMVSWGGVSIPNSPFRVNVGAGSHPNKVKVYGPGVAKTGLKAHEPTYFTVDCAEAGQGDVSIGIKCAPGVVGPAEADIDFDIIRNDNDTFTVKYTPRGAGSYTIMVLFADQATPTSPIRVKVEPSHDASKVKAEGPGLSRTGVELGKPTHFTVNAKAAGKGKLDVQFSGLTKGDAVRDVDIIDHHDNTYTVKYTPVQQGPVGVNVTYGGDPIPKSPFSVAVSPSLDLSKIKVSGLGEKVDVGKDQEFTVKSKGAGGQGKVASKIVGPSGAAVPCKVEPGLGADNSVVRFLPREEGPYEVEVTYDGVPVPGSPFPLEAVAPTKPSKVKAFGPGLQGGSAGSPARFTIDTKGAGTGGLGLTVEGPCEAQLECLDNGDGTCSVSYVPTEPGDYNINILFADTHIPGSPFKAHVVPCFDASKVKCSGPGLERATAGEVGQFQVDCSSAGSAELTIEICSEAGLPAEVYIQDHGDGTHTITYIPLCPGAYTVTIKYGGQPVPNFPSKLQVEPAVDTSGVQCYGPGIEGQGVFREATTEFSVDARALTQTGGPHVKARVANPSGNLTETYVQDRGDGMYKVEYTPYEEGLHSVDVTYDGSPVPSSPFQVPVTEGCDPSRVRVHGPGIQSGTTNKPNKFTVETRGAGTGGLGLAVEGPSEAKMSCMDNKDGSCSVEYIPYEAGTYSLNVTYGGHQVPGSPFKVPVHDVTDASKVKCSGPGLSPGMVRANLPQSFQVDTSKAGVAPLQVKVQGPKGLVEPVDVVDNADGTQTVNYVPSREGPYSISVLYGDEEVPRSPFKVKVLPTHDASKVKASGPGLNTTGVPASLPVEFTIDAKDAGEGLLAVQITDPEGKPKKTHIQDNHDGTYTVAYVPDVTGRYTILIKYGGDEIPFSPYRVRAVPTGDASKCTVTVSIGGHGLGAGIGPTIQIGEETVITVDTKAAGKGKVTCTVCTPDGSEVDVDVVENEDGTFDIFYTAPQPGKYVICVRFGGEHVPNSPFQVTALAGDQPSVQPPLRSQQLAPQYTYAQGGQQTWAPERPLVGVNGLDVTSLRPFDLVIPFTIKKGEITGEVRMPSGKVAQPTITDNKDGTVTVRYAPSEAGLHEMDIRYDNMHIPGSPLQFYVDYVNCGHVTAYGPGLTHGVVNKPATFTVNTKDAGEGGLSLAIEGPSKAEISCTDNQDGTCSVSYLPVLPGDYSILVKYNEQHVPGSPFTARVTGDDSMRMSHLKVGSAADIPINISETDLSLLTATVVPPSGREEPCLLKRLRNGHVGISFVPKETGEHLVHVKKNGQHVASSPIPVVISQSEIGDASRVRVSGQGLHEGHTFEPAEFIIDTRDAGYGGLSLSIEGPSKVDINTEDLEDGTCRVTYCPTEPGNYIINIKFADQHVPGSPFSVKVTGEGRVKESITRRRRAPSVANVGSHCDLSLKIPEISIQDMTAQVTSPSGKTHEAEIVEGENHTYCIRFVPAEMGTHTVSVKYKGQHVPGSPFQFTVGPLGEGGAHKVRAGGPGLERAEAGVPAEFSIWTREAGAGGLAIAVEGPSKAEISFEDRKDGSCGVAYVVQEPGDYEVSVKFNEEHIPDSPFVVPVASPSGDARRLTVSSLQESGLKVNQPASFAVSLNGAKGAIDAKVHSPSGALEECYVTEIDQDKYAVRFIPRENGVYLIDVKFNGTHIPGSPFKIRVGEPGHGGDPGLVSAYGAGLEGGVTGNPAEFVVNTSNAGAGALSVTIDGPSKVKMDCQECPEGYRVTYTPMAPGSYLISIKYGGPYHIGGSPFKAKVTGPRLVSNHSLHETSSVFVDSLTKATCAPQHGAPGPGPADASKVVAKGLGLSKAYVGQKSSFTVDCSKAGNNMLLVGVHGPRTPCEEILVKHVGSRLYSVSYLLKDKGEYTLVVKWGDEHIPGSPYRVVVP
UniProt P62834: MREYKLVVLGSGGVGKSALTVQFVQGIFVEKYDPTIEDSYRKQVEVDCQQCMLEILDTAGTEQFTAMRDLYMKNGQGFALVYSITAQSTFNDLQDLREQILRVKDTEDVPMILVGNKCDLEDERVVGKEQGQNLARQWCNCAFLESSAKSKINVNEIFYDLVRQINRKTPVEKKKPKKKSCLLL
T7-tagged Rap1V12 (constitutively active mutant of human Rap1a) (P62834, form named): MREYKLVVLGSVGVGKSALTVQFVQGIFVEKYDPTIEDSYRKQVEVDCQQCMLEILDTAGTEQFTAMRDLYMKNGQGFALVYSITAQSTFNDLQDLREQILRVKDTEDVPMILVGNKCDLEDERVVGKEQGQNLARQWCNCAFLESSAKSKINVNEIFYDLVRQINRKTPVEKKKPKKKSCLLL

This assay has as its target Halo-tagged FLNa lacking repeat 3 (Δ3) (UniProt P21333). Briefly: pull-down; lysates of COS cells transfected with Halo-FLNa (wild type or deletion mutants) and T7-Rap1V12 or N17, in one panel also αL and mRFP-β; precipitated with HaloLink resin; immunoblotted with anti-T7, Halo, mRFP, αL. In general terms: Immunoblotting shows a protein as a band on a membrane.

Results are given in words; binding and its absence hold for the method and conditions named. Binding seen in cells or lysates may run through a third protein.

As to “T7-tagged Rap1V12 (constitutively active mutant of human Rap1a) (from UniProt P62834 1-184)”, the binding entry was “no binding”.
